Measured values from paper PMC11555678 (ACS Infectious Diseases, 2024).
End groups of sequences in plain letters are not given here.

Columns and labels:
[1] = general procedure: Fmoc solid-phase peptide synthesis; HCTU; settings: whole synthesis, 220nm
[2] = general procedure: Fmoc solid-phase peptide synthesis; Wang resin; HCTU; settings: whole synthesis, scale 0.1 mmol

In the case of WGGIKONYA, the “final HPLC purity” value [1] is reported as >95% and the isolated yield [2] is reported as 66.0%.
